From patent US20240301064A1
Positions count from the first letter of the chain named. No constants are given. Whether binding was seen depends on the method and setting. Some entries that bind do so weakly or less than the wild type. Each block holds one binder with its values, some of them ahead of it.

Amino acid sequences for entries named in this document (tags omitted). Residues count along the entry.
UniProt Q15116, residues 25-167: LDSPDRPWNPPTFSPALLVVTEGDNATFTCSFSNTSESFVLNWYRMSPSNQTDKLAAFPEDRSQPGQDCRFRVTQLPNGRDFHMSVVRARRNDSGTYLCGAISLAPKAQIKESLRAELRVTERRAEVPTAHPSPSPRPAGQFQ

Target: human PD-1 (human) (UniProt Q15116)
Test: ELISA on coated huPD-1

B3: PMAB250 (antibody, human IgG1, kappa, V domains shown)
VH: QVQLVQSGAEVKKPGASVKVSCKASGYSFTTYYMHWVRQAPGQGLEWMGIIQPSGGSTSYAQKFQGRVTMTRDTSTSTVYMELSSLRSEDTAVYYCASGWVYWGQGTLVTVSS
VL: DIQMTQSPSSLSASVGDRVTITCRASRDISNYLAWYQQKPGKAPKLLIYAASSLQSGVPSRFSGSGSGTDFTLTISSLQPEDFATYYCQQSYSTPPTFGPGTKVDIKR
binding: binds

B6: PMAB262 (antibody, human IgG1, kappa, V domains shown)
VH: B3 VH
VL: B3 VL with D28S, S30K, N31S
binding: binds

B7: PMAB260 (antibody, human IgG1, kappa, V domains shown)
VH: B3 VH
VL: B3 VL with R27Q, S30K, N31S
binding: binds

B9: PMAB254 (antibody, human IgG1, kappa, V domains shown)
VH: B3 VH
VL: B3 VL with R24Q, R27Q, S30K, N31S
binding: binds

B11: PMAB266 (antibody, human IgG1, kappa, V domains shown)
VH: B3 VH
VL: B3 VL with R24Q, R27Q, N31S
binding: binds

B13: PMAB247 (antibody, human IgG1, kappa, V domains shown)
VH: B3 VH with S28T, T31S
VL: B3 VL with R24Q, S30K
binding: binds

B18: PMAB246 (antibody, human IgG1, kappa, V domains shown)
VH: B3 VH with T31S
VL: B3 VL with R24Q, S30K
binding: binds

B19: PMAB261 (antibody, human IgG1, kappa, V domains shown)
VH: B3 VH
VL: B3 VL with D28S
binding: binds

B20: PMAB267 (antibody, human IgG1, kappa, V domains shown)
VH: B3 VH
VL: B3 VL with R24Q, D28S, N31S
binding: binds

Further lines, results first:

binding: binds
B1: PMAB244 (antibody, human IgG1, kappa, V domains shown)
VH: B3 VH
VL: B3 VL with R24Q, S30K

binding: binds
B2: PMAB259 (antibody, human IgG1, kappa, V domains shown)
VH: B3 VH
VL: B3 VL with R27Q

binding: binds
B4: PMAB251 (antibody, human IgG1, kappa, V domains shown)
VH: B3 VH
VL: B3 VL with S30K, N31S

binding: binds
B5: PMAB263 (antibody, human IgG1, kappa, V domains shown)
VH: B3 VH
VL: B3 VL with N31S

binding: binds
B8: PMAB253 (antibody, human IgG1, kappa, V domains shown)
VH: B3 VH
VL: B3 VL with R24Q, R27Q

binding: binds
B10: PMAB264 (antibody, human IgG1, kappa, V domains shown)
VH: B3 VH
VL: B3 VL with R24Q, R27Q, D28S

binding: binds
B12: PMAB258 (antibody, human IgG1, kappa, V domains shown)
VH: B3 VH
VL: B3 VL with R27Q, D28S, S30K

binding: binds
B14: PMAB252 (antibody, human IgG1, kappa, V domains shown)
VH: B3 VH
VL: B3 VL with R24Q, R27Q, D28S, S30K

binding: binds
B15: PMAB245 (antibody, human IgG1, kappa, V domains shown)
VH: B3 VH with S28T
VL: B3 VL with R24Q, S30K

binding: binds
B16: PMAB265 (antibody, human IgG1, kappa, V domains shown)
VH: B3 VH
VL: B3 VL with R24Q, R27Q, D28S, S30K, N31S

binding: binds
B17: PMAB248 (antibody, human IgG1, kappa, V domains shown)
VH: B3 VH
VL: B3 VL with R27Q, S30K

binding: binds
B21: PMAB257 (antibody, human IgG1, kappa, V domains shown)
VH: B3 VH
VL: B3 VL with R24Q, N31S

binding: binds
B22: PMAB255 (antibody, human IgG1, kappa, V domains shown)
VH: B3 VH
VL: B3 VL with R24Q, D28S

binding: binds
B23: PMAB256 (antibody, human IgG1, kappa, V domains shown)
VH: B3 VH
VL: B3 VL with R24Q, D28S, S30K, N31S
